For the test, the target named is T1, ADAMTS-5 3×FLAG full length (human) (UniProt Q9UNA0).
T1 sequence: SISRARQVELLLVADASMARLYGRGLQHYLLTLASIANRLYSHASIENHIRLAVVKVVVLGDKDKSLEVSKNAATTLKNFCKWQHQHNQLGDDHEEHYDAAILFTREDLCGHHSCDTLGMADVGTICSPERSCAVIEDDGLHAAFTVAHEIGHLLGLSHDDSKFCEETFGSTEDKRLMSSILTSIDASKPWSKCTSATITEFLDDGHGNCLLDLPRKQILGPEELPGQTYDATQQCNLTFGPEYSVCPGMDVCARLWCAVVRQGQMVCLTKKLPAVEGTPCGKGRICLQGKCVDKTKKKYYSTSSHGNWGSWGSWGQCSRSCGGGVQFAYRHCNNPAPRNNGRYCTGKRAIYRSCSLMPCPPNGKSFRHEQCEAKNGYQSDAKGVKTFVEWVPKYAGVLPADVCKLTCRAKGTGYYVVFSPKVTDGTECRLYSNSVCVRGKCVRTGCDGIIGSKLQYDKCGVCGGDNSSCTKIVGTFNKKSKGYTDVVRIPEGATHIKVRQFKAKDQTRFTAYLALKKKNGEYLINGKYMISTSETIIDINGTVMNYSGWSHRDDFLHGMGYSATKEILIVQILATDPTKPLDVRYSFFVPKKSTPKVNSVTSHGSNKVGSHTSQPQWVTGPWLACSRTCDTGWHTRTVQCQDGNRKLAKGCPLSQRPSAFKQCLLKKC
As to the kind of experiment: competition ELISA, CRB0017_IgG4 coated at 2 µg/ml, ADAMTS-5 at 4 µg/ml with Syndecan-4 at 0.1 µg/ml, anti-FLAG detection; competitor CRB0017_IgG4. (In general: An ELISA detects its analyte on a solid surface through an enzyme-linked reagent.)

No constants are given. Whether binding was seen depends on the method and setting. Some entries that bind do so weakly or less than the wild type. Where a sequence is shown, tags or fusion partners need not be part of it.

B1: Syndecan-4 (protein, UniProt P31431 19-145, looked up)
chain: ESIRETEVIDPQDLLEGRYFSGALPDDEDVVGPGQESDDFELSGSGDLDDLEDSMIGPEVVHPLVPLDNHIPERAGSGSQVPTEPKKLEENEVIPKRISPVEESEDVSNKVSMSSTVQGSNIFERTE
Consider B1, for which the binding entry is recorded as “binds”.

The values are drawn from patent US20150056210A1.
